Results from PubChem BioAssay AID540276 (National Center for Advancing Translational Sciences (NCATS), 2011).
Several values for one entry are separate records, joined by “and”; a condition that tells them apart may be missing. Equal values may be shown once. Out of some 300,000 compounds screened, about 5,400 (1.8%) were called active. Inconclusive means that the source gave no clear call. Such entries were picked first, then a sample of the others. Calls follow the shape of the full dose curve; tested in HEK293 cells. Potencies of inconclusive entries are doubtful fits and often do not repeat. Residues, ends and D or L forms follow the SMILES beside them. *: point of attachment. Boc = CC(C)(C)OC(=O)*

test: qHTS for inhibitors of binding or entry into cells for Marburg Virus; settings: Marburg virus pseudotyped entry inhibition, cell reporter; activity change, negative = inhibition: at 37.8 µM (top of the series) unless noted
% is scaled to controls: 0 for no effect and ±100 for the full control effect; potency is read from the fitted curve at half-maximal effect.

Q: Which “activity change, negative = inhibition” value does the source give for `CCOC(=O)CNC(=O)c1cc(OC)cc(OC)c1` here?
A: inactive: 12.9% [at 46.1 µM]

Q: For `COC(=O)c1ccc2c(c1)C(C)(C)C(/C=C/c1ccc(O)cc1)=[N+]2C`, which Potency is on record?
A: inactive and inconclusive: 29.1 µM [inhibitor, single point]

Q: Which “activity change, negative = inhibition” value does the source give for `COC(=O)Cc1nc2c(N)nc(N)nc2[nH]c1=O` here?
A: inactive: -8.16% [at 46.1 µM]

Q: With `O=[N+]([O-])c1ccccc1S(=O)(=O)n1nnc2ccccc21` as the compound, how does the Potency read?
A: inconclusive: 35.5 µM [activator, single point]

Q: For `O=C(Nc1ccc(-c2nc3ccccc3s2)c(OC(=O)c2ccccc2)c1)c1ccccc1`, which Potency is on record?
A: inconclusive: 1.03 µM [activator, partial curve, poor fit]

Q: Which “activity change, negative = inhibition” value does the source give for `Oc1ccc(/C=N/NC(=S)NCc2ccco2)cc1` here?
A: inactive: 0.0211%

Q: With `COCCCNC(=O)CC(NS(=O)(=O)c1ccc(C)cc1)c1ccco1` (centres undefined) as the compound, how does the Potency read?
A: inconclusive: 10 µM [activator, partial curve, poor fit]

Q: For `COc1ccc(OC)c(CNC(=O)C2CCN(S(C)(=O)=O)CC2)c1`, which Potency is on record?
A: inconclusive: 6.31 µM [activator, full curve, poor fit]

Q: For `COc1cc2c(cc1OC)C(C)N(C(=O)c1cccs1)CC2` (centres undefined), which Potency is on record?
A: inconclusive: 20 µM [inhibitor, single point]

Q: For `CCn1cc(S(=O)(=O)N2CCN(c3ccc(Cl)cc3)CC2)cn1`, which “activity change, negative = inhibition” value is on record?
A: inactive: -27.2%

Q: For `Cn1c(=O)n(C)c2cc(S(=O)(=O)Nc3ccccc3)ccc21`, which Potency is on record?
A: inconclusive: 2 µM [inhibitor, full curve, poor fit]

Q: With `COC(=O)N1CCCc2cc(S(=O)(=O)N3CCN(c4ccccc4)CC3)ccc21` as the compound, how does the “activity change, negative = inhibition” value read?
A: inactive: -8.34% [at 46.1 µM]

Q: Which Potency does the source give for `CCC(C)C(NC(=O)OC(C)(C)C)C(=O)NC(C(=O)N1CCCC1C(N)=O)C(C)CC` (stereo not drawn) (Boc-Ile-Ile-Pro-NH2; configuration not given here) here?
A: inconclusive: 7.94 µM [inhibitor, partial curve, poor fit]

Q: With `CC(C)CNC(=O)c1oc2ccccc2c1COc1ccccc1` as the compound, how does the “activity change, negative = inhibition” value read?
A: inactive: -20% [at 46.1 µM]

Q: With `COc1ccc([N+](=O)[O-])cc1N(CC(O)CN(CC(C)C)CC(C)C)S(=O)(=O)c1ccccc1` (centres undefined) as the compound, how does the Potency read?
A: active: 11.6 µM

Q: Which Potency does the source give for `COc1ccc(CCNC(=O)C2CCN(C(=O)c3ccccc3C)CC2)cc1` here?
A: inconclusive: 6.31 µM [inhibitor, partial curve, poor fit]

Q: With `O=C(CSc1nc2cc(Cl)ccc2s1)c1ccco1` as the compound, how does the “activity change, negative = inhibition” value read?
A: inactive: 23.9%

Q: For `CC(=O)Nc1c(Br)cc2c(c1Br)Cc1cc([N+](=O)[O-])ccc1-2`, which “activity change, negative = inhibition” value is on record?
A: inactive: -18.6% [at 46.1 µM]

Q: Which Potency does the source give for `c1cnc(SCCOc2cccc3ccccc23)nc1` here?
A: inconclusive: 29.1 µM [inhibitor, single point]

Q: For `CCOC(=O)N/N=C/c1cccnc1`, which Potency is on record?
A: inconclusive: 3.16 µM [activator, partial curve, poor fit]

Q: With `CCOc1ccc(OCC)c(NC(=O)CCc2nc3cccnc3n2Cc2cccs2)c1` as the compound, how does the Potency read?
A: inconclusive: 1.12 µM [inhibitor, partial curve, poor fit]

Q: Which “activity change, negative = inhibition” value does the source give for `Cn1cnc2cc(NC(=O)COc3ccccc3)ccc21` here?
A: inactive: 6.28% [at 46.1 µM]

Q: Which Potency does the source give for `CC(=O)c1sc(NC(=O)c2ccc(COc3ccccc3Cl)o2)nc1C` here?
A: inconclusive: 35.5 µM [activator, single point]

Q: With `CCOc1cc(NC(=O)c2ccco2)c(OCC)cc1NC(=O)c1ccco1` as the compound, how does the “activity change, negative = inhibition” value read?
A: inactive: 10.9% [at 46.1 µM]

Q: For `CCCNc1nc(Nc2ccc(C)cc2)nc(N2CCCC2)n1`, which Potency is on record?
A: active: 14.6 µM

Q: Which “activity change, negative = inhibition” value does the source give for `CC(=O)Nc1cccc(N=NN2CCCCC2)c1` here?
A: inactive: -19.3% [at 46.1 µM]

Q: Which “activity change, negative = inhibition” value does the source give for `S=c1[nH]c2ncccc2o1` here?
A: inactive: 1.08%

Q: For `CC(C)CCN1CC(C(=O)NCCC2=CCCCC2)CC1=O` (centres undefined), which “activity change, negative = inhibition” value is on record?
A: inactive: -4.69%

Q: Which Potency does the source give for `COc1ccc(OCC(=O)NNC(=O)Cn2c(=O)cnc3ccccc32)cc1` here?
A: inconclusive: 35.5 µM [activator, single point]

Q: With `CCCCN(C)C(=O)c1nc2ccccn2c1CN1CCC[C@H]1C(=O)OC` as the compound, how does the “activity change, negative = inhibition” value read?
A: inactive: -36.9% [at 46.1 µM]

Q: Which Potency does the source give for `O=C(CN1CCN(Cc2ccc(Cl)cc2)C1=O)NCCCN1CCN(c2ccc(F)cc2)CC1` here?
A: active: 13 µM

Q: With `N#CCCN1CCN(C(CNS(=O)(=O)c2ccc(Cl)cc2)c2ccccc2)CC1` (centres undefined) as the compound, how does the “activity change, negative = inhibition” value read?
A: inactive: -6.69%

Q: For `COC(=O)c1ccc(/C=C2/SC(=S)N(CCC(=O)NCCCN3CCOCC3)C2=O)cc1`, which Potency is on record?
A: inconclusive: 5.62 µM [inhibitor, full curve, poor fit]

Q: With `COc1ccccc1C(=O)N/N=C/C(C)=C/c1ccccc1` as the compound, how does the Potency read?
A: inconclusive: 6.31 µM [activator, full curve, poor fit]

Q: Which Potency does the source give for `N#Cc1c(NC(=O)COC(=O)c2nccnc2N)sc2c1CCCC2` here?
A: inconclusive: 12.6 µM [activator, partial curve, poor fit]

Q: With `CCOC(=O)c1cn(-c2nc(-c3ccc(Cl)c(Cl)c3)cs2)c2c(F)c(N3CCOCC3)c(F)cc2c1=O` as the compound, how does the Potency read?
A: inconclusive: 0.794 µM [inhibitor, single point]

Q: With `Cc1ccc(Cl)cc1NC(=O)NCc1cccn1Cc1ccc(F)cc1` as the compound, how does the “activity change, negative = inhibition” value read?
A: inactive: 10.6% [at 46.1 µM]

Q: Which “activity change, negative = inhibition” value does the source give for `O=C(Nc1ccc(F)cc1)Nc1ccc([N+](=O)[O-])cn1` here?
A: inactive: -0.274% [at 46.1 µM]

Q: Which Potency does the source give for `O=C(N/N=C/c1ccccc1F)c1cccc(NC(=O)c2ccccc2Cl)c1` here?
A: inconclusive: 31.6 µM [activator, single point]

Q: For `CCCCOc1ccc(/C=N/NC(=O)C2CCCNC2=O)cc1` (centres undefined), which “activity change, negative = inhibition” value is on record?
A: inactive: -0.0433%

Q: For `COc1cc(OC)c(NC(=O)n2ncc3cc(Cl)ccc32)cc1Cl`, which “activity change, negative = inhibition” value is on record?
A: inactive: -9.19% [at 46.1 µM]

Q: With `Cc1ccc(CNC(=O)CSc2nnnn2C)cc1` as the compound, how does the Potency read?
A: inconclusive: 2.31 µM [inhibitor, partial curve, poor fit]

Q: Which “activity change, negative = inhibition” value does the source give for `CCCNC(=O)Cn1cc(S(=O)(=O)N2CCCC2)c(S(=O)(=O)N2CCCC2)c1` here?
A: inactive: 13.8% [at 46.1 µM]

Q: With `Cc1ccc(C(=O)CN(Cc2ccccc2)C2=NCCS2)cc1` as the compound, how does the Potency read?
A: inconclusive: 15.8 µM [inhibitor, single point]

Q: For `CCOc1ccc(CCNc2ccc3nnc(-c4ccccc4)n3n2)cc1OCC`, which “activity change, negative = inhibition” value is on record?
A: inactive: 26.7%

Q: With `CC(C)(C)c1nnc2sc(SCC(=O)c3ccc(Cl)cc3)nn2c1=O` as the compound, how does the “activity change, negative = inhibition” value read?
A: inactive: -2.73%

Q: For `C(=N\Nc1ncnc2sc3c(c12)CCC3)/c1ccncc1`, which Potency is on record?
A: inconclusive: 11.2 µM [inhibitor, partial curve, poor fit]

Q: Which “activity change, negative = inhibition” value does the source give for `O=C(CSc1nnc(-c2ccco2)o1)c1ccc(F)c(F)c1` here?
A: inactive: 2.53%

Q: Which Potency does the source give for `NC(C(=O)O)c1cc(=O)[nH]o1` (centres undefined) here?
A: inconclusive: 20.6 µM [activator, single point]

Q: Which Potency does the source give for `O=C(NCc1cccnc1)C1CCN(S(=O)(=O)c2cc(Cl)ccc2Cl)CC1` here?
A: inconclusive: 2.82 µM [inhibitor, full curve, poor fit]

Q: Which “activity change, negative = inhibition” value does the source give for `O=C(c1ccco1)N1CCN(C2CC(=O)N(c3ccc(C(F)(F)F)cc3)C2=O)CC1` (centres undefined) here?
A: inactive: 5.08%

Q: Which “activity change, negative = inhibition” value does the source give for `O=C(O)C1OCC2(CO1)COC(C(=O)O)OC2` (centres undefined) here?
A: inactive: -4.92%

Q: With `O=C(N/N=C/c1ccc(-c2cccc([N+](=O)[O-])c2)o1)c1cccs1` as the compound, how does the Potency read?
A: inconclusive: 3.16 µM [activator, partial curve, poor fit]

Q: With `COc1cccc(/C=N/Nc2ccc([N+](=O)[O-])cc2)c1O` as the compound, how does the Potency read?
A: inconclusive: 1.26 µM [activator, partial curve, poor fit]

Q: With `COc1ccccc1NS(=O)(=O)c1cccc(NC(=O)C2CC(=O)N(Cc3ccccc3)C2)c1` (centres undefined) as the compound, how does the Potency read?
A: inconclusive: 35.5 µM [inhibitor, single point]

Q: With `COc1ccccc1NC(=S)Nc1ccccn1` as the compound, how does the “activity change, negative = inhibition” value read?
A: inactive: 14.1%

Q: For `CCn1c(SCC(=O)Nc2nc(C)c(C)s2)nc2cccnc21`, which Potency is on record?
A: inconclusive: 20 µM [inhibitor, single point]

Q: For `COC(=O)c1ccc(COc2ccc(C=O)cc2OC)o1`, which “activity change, negative = inhibition” value is on record?
A: inactive: 1.63% [at 46.1 µM]

Q: With `O=C(NCc1nnc(SCc2ccc(F)cc2)n1-c1ccccc1)C12CC3CC(CC(C3)C1)C2` as the compound, how does the Potency read?
A: inconclusive: 35.5 µM [inhibitor, single point]

Q: For `CCCCC(=O)Nc1nnc(SCC(=O)NCC2CCCO2)s1` (centres undefined), which Potency is on record?
A: inconclusive: 1 µM [inhibitor, single point]

Q: For `Cc1cnc(C)c(N2CCC(C(=O)NC(C)c3cccs3)CC2)n1` (centres undefined), which Potency is on record?
A: inconclusive: 1.58 µM [inhibitor, partial curve, poor fit]

Q: Which “activity change, negative = inhibition” value does the source give for `COc1cc(OC)c(OC)cc1/C=N/n1c(C)nc2ccccc2c1=O` here?
A: inactive: 13.5% [at 46.1 µM]

Q: With `O=S(=O)(c1ccc(NC(=S)N/N=C/c2ccc(O)c(O)c2)cc1)N1CCOCC1` as the compound, how does the “activity change, negative = inhibition” value read?
A: inactive: -5.44% [at 46.1 µM]

Q: With `CCN(CC)CCOC(=O)c1ccc(NC(=O)c2cccc(C)c2[N+](=O)[O-])cc1` as the compound, how does the “activity change, negative = inhibition” value read?
A: inactive: -18.9%

Q: Which “activity change, negative = inhibition” value does the source give for `Cc1ccccc1C(=O)OCC(=O)NCc1ccco1` here?
A: inactive: 7.9%

Q: Which Potency does the source give for `CC(C)c1ccc(N2C(=O)NC(=O)/C(=C/C=C/c3ccco3)C2=O)cc1` here?
A: inconclusive: 16.4 µM [inhibitor, single point]

Q: With `CCC(=O)N(CCC(c1ccco1)c1ccccc1OC)Cc1cccs1` (centres undefined) as the compound, how does the Potency read?
A: inconclusive: 11.6 µM [inhibitor, partial curve, poor fit]

Q: Which Potency does the source give for `O=C(/C(N=Nc1cccc(C(F)(F)F)c1)=C(/O)c1cccs1)C(F)(F)F` here?
A: inconclusive: 35.5 µM [inhibitor, single point]

Q: For `CCOC(=O)Cc1csc(SCC(=O)Nc2cccc(Cl)c2)n1`, which Potency is on record?
A: inconclusive: 17.8 µM [inhibitor, single point]

Q: Which Potency does the source give for `COc1cccc2c(Cl)c(CCCl)c(C)nc12` here?
A: inconclusive: 35.5 µM [inhibitor, single point]

Q: For `COC(=O)Cn1c(C)nc2c(sc3nc(C)cc(C)c32)c1=O`, which Potency is on record?
A: inconclusive: 1.12 µM [activator, partial curve, poor fit]

Q: Which Potency does the source give for `Cc1ccc(NC(=O)c2c(O)c3ccccc3n(C)c2=O)nc1` here?
A: inconclusive: 4.11 µM [activator, full curve, poor fit]

Q: With `Cc1ccc(-n2cc(CN3CCN(Cc4nccn4C)CC3)c(-c3cccc(C)c3)n2)cc1` as the compound, how does the Potency read?
A: inconclusive: 28.2 µM [inhibitor, single point]

Q: For `COC(=O)/C=C/c1ccc(-n2cncn2)cc1`, which “activity change, negative = inhibition” value is on record?
A: inactive: 12.3% [at 46.1 µM]
